Results are given in words; binding and its absence hold for the method and conditions named. In cells and extracts the contact can be indirect. Some entries that bind do so weakly or less than the wild type. Tags and fused reporters may be left off the sequences shown.

Protein sequences, listed by entry. Tags and fused reporters are not part of them. Residues count along the entry.
UniProt O22476, residues 24-1196: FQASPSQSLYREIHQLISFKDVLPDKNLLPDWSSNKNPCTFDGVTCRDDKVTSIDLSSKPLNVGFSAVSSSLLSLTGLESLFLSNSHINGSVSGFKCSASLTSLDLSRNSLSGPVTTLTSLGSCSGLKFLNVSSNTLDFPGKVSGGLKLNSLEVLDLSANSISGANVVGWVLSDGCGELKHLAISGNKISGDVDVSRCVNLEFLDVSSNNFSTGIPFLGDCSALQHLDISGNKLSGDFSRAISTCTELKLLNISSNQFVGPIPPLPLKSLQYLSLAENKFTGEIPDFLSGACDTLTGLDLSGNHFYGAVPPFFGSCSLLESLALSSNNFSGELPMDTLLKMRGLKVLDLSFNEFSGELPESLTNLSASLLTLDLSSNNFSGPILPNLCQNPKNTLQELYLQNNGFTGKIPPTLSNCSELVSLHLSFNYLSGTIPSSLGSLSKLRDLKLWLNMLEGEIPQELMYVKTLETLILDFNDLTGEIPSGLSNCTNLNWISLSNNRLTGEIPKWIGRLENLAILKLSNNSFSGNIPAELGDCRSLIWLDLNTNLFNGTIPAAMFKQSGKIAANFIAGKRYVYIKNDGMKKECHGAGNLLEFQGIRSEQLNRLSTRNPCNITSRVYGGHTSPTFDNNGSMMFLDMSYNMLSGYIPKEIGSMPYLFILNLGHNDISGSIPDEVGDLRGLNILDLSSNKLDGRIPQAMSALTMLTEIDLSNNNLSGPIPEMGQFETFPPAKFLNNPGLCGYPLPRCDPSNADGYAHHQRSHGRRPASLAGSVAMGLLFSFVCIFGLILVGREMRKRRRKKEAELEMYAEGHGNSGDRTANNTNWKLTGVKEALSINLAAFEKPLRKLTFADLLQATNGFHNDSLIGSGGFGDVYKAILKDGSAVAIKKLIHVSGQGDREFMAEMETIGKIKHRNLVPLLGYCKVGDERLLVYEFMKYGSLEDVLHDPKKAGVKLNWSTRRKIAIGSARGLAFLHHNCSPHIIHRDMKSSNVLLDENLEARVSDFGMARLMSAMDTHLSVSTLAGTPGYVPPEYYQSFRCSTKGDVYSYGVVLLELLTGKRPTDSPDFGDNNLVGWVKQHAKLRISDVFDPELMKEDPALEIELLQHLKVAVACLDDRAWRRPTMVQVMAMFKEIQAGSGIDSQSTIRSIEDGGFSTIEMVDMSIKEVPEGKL

The record followed here is publication PMC3257278.

The experiment concerns the target BRI1-FLAG (Brassinosteroid Insensitive 1) (Arabidopsis thaliana) (UniProt O22476). The experiment can be described thus: co-IP; solubilized membrane protein from 11-day-old liquid-cultured transgenic Arabidopsis seedlings (35S::SERK2-GFP and 35S::BRI1-FLAG), treated with or without 24-epiBL for 90 min; BRI1-FLAG immunoprecipitated with agarose-linked anti-FLAG antibody; Western with anti-GFP and anti-FLAG.

B1: SERK2-GFP (Somatic Embryogenesis Receptor Kinase 2) (receptor, UniProt Q9XIC7 30-628)
chain: NMEGDALHSLRANLVDPNNVLQSWDPTLVNPCTWFHVTCNNENSVIRVDLGNADLSGQLVPQLGQLKNLQYLELYSNNITGPVPSDLGNLTNLVSLDLYLNSFTGPIPDSLGKLFKLRFLRLNNNSLTGPIPMSLTNIMTLQVLDLSNNRLSGSVPDNGSFSLFTPISFANNLDLCGPVTSRPCPGSPPFSPPPPFIPPPIVPTPGGYSATGAIAGGVAAGAALLFAAPALAFAWWRRRKPQEFFFDVPAEEDPEVHLGQLKRFSLRELQVATDSFSNKNILGRGGFGKVYKGRLADGTLVAVKRLKEERTPGGELQFQTEVEMISMAVHRNLLRLRGFCMTPTERLLVYPYMANGSVASCLRERPPSQLPLAWSIRQQIALGSARGLSYLHDHCDPKIIHRDVKAANILLDEEFEAVVGDFGLARLMDYKDTHVTTAVRGTIGHIAPEYLSTGKSSEKTDVFGYGIMLLELITGQRAFDLARLANDDDVMLLDWVKGLLKEKKLEMLVDPDLQSNYTEAEVEQLIQVALLCTQSSPMERPKMSEVVRMLEGDGLAEKWDEWQKVEVLRQEVELSSHPTSDWILDSTDNLHAMELSGPR
For B1, the binding result is “binds weakly”.
